# Key:
# By UniProt entry, the sequences of proteins in these tests, tags left out.
# UniProt P19821, whole entry: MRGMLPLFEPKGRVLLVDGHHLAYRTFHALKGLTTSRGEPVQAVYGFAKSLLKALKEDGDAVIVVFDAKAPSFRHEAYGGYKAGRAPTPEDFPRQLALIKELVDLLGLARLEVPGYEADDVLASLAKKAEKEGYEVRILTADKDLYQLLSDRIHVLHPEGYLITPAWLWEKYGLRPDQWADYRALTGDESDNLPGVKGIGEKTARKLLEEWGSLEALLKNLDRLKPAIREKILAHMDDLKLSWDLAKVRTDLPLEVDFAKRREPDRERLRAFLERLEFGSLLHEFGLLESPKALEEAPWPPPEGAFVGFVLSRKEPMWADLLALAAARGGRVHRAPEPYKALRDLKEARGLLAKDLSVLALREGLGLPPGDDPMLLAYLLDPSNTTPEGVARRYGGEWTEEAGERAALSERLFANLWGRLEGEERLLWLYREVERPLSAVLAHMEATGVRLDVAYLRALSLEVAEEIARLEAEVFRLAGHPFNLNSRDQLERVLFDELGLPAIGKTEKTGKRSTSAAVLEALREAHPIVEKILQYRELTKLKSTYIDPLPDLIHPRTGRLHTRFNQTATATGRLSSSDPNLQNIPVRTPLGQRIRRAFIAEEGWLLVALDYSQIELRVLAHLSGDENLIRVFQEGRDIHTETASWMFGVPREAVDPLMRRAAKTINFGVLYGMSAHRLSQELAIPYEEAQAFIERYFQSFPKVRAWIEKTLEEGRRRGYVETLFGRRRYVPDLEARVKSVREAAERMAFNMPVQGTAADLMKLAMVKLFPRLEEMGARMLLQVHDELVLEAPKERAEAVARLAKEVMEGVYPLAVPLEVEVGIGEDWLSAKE
# UniProt P52028, whole entry: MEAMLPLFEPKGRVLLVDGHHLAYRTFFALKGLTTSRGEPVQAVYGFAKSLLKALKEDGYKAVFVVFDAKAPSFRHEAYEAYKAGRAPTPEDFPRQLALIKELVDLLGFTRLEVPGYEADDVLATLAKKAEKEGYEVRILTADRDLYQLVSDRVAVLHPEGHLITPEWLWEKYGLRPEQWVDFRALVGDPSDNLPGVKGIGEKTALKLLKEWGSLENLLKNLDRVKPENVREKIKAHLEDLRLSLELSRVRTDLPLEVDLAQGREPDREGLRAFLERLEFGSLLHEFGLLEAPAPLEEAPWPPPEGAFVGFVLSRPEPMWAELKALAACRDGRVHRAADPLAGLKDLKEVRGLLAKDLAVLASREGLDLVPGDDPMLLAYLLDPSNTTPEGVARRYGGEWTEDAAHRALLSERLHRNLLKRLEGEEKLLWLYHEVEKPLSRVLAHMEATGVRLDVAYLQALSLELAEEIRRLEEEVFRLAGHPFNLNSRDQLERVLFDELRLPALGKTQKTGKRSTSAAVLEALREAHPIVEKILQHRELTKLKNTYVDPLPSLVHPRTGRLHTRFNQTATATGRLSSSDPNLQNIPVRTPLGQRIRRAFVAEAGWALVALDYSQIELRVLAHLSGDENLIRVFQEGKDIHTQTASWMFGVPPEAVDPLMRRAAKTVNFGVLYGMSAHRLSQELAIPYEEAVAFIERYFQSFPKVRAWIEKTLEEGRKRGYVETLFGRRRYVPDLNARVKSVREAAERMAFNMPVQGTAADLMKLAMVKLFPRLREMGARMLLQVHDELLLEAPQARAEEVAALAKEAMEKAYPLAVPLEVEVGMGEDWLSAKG
# [1] = molecular target: Taq DNA polymerase (rTaq) (Thermus aquaticus) (UniProt P19821); assay: activity assay; conditions: hairpin template extended by polymerase; standard PCR buffer; purified recombinant protein; protein details: Roche Molecular Systems, Mr 94 kDa; label: 5'-32P; folded or branched DNA
# [2] = molecular target: Tth DNA polymerase (rTth) (Thermus thermophilus) (UniProt P52028); assay: activity assay; conditions: hairpin template extended by polymerase; purified recombinant protein; protein details: Roche Molecular Systems, Mr 94 kDa; label: 5'-32P; folded or branched DNA
sequence,measurement,setting,value
ATGCCTAAGTTTCGAACGCGGCTAGCCAGCTTTTGCTGGCTAGCCGCGT [DNA-HP hairpin template],activity on this sequence,[1],active
same,activity on this sequence,[2],active

# Reference: patent US5693502
